Data taken from US9804152B1, “Human ex vivo skin model and its use in methods of identifying modulators of skin inflammation” (The Procter & Gamble Company, priority 2012, dated 2017).
At least one compound was matched to its structure with a doubt left.

Test system: endogenously inflamed ex vivo human skin sample
Experiment: Inhibitors of endogenous inflammation: inflammation marker gene expression in ex vivo skin samples
Type: cell-based
Settings: 10 μM clobetasol, 0.6 nM betamethasone, 0.08 μM hydrocortisone, 30 μM ketoprofen, 35 μM arlatone
Excerpt: This Example describes the materials and methods used in preparing ex vivo skin samples for use according to the methods disclosed herein. Materials used in preparation of ex vivo skin samples for use in the disclosed screening methods included: Dulbecco's Modified Eagle Medium (DMEM) plus Glutamax, antibiotic and antimycotics, 1× phosphate-buffered saline (PBS), 150×15 mm sterile culture dishes, sterile gauze 4×4, disposable safety scalpels, 4 mm disposable biopsy punch, 6-well cell-culture inserts, disinfected tweezers, cotton-tipped applicators, 6-well culture plates, ruled, disinfected cutting mat (12×12), scraper handle, tissue freezing medium, biopsy cassettes, frozen-tissue freezing vessels, 10% formalin, shipping containers for fixed tissue, and biohazard/sharps containers. Media was prepared in advance of the arrival of ex vivo skin. The skin arrived with the dermis (fat) side down on sterile DMEM soaked gauze in a sterile culture dish. The culture dish was taped shut and in a biohazard zip-lock baggie on an ice pack in a secondary container.
On arrival, the skin was removed from the bag and soaked in 3×DMEM media (3× refers to concentration of antibiotic and antimycotics) and stored at 4° C. for 1 hour. After 1 hour, the skin was removed from the 3×DMEM and rinsed with sterile 1×PBS. The skin was placed in a clean culture dish containing gauze soaked with 1×DMEM. […]

C[C@H]1C[C@H]2[C@@H]3CCC4=CC(=O)C=C[C@]4(C)[C@@]3(F)[C@@H](O)C[C@]2(C)[C@@]1(O)C(=O)CO [betamethasone]
rank ordering of inflammation inhibitors based on IL-8 and IL-6 inhibition levels: followed by betamethasone, hydrocortisone, ketoprofen and arlatone
